Experimental data as given in US20040009177A1 (SERVICES, published 2004).
These are yes or no findings as the source states them, for the method shown. Some entries that bind do so weakly or less than the wild type.

Amino acid sequences for entries named in this document (tags omitted). Residues count along the entry.
UniProt P49238: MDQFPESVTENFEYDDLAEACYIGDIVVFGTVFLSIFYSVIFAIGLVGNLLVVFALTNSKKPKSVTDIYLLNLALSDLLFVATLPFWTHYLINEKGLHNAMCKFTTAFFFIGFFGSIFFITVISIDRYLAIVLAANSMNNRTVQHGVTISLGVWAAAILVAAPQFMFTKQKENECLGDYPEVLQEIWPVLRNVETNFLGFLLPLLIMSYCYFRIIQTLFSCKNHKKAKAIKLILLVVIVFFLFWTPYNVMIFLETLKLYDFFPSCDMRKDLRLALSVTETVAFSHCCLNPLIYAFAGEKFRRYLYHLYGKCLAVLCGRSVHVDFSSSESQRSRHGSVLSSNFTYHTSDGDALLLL
UniProt P03423: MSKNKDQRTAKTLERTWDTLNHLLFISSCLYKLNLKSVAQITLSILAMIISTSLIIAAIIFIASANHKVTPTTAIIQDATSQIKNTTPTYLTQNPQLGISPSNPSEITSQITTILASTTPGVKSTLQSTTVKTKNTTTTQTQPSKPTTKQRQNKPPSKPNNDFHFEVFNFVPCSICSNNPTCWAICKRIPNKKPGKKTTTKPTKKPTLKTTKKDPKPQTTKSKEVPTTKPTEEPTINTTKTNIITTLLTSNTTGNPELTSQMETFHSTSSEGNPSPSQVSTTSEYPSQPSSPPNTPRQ
UniProt P78423, residues 25-100: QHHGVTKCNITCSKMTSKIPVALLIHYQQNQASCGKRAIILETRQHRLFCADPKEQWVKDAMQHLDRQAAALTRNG

Experiments:
[1] = target: CX3CR1 on CX3CR1-transfected human embryonic kidney cells (293-CX3CR1 cells) (UniProt P49238); experiment: flow cytometry with G-depleted void volume of a 130-2G affinity column as control
[2] = target: CX3CR1 on CX3CR1-transfected human embryonic kidney cells (293-CX3CR1 cells) (UniProt P49238); experiment: binding and binding inhibition assays with 293-CX3CR1 cells
[3] = target: CX3CR1 on CX3CR1-transfected human embryonic kidney cells (293-CX3CR1 cells) (UniProt P49238); experiment: flow cytometry on 293-CX3CR1 cells
[4] = target: CX3CR1 on CX3CR1-transfected human embryonic kidney cells (293-CX3CR1 cells) (UniProt P49238); experiment: flow cytometry on 293-CX3CR1 cells, 4°C

| Substance | binding [1] | binding [2] | binding [3] | binding [4] |
| --- | --- | --- | --- | --- |
| RSV G glycoprotein, purified from RSV/A2-infected Vero cells (from UniProt P03423 1-298) (ligand) | binds | binds | – | – |
| human fractalkine (R&D Diagnostics) (from UniProt P78423 25-100) (ligand) | – | – | binds | binds |
